Reference: patent publication US10159726B2, “Peptides, combination of peptides and scaffolds for use in immunotherapeutic treatment of various cancers” (Immatics Biotechnologies GmbH, priority 2015, dated 2018)

Tested on: HLA-A*24 molecules of primary tumors
Test: Identification and relative LC-MS quantitation of HLA-A*24 tumor-associated peptides presented on tissue samples (XPRESIDENT presentation profiles)
Set-up: species or system human
Conditions: for ENTITIES: Table 9A: selected HLA-A*24-binding tumor-associated peptides, cancer entities on which the peptide was found presented; for Peptide Presentation on cancer entities: Table 9B: selected HLA-A*24 peptides, presentation on additional cancer entities

| Substance | ENTITIES | Peptide Presentation on cancer entities |
| --- | --- | --- |
| 232 (YYLSDSPLL; listed as Homo sapiens) [compound 232] | NSCLC, GC | – |
| 233 (QYLTAAALHNL; listed as Homo sapiens) [compound 233] | – | NSCLC |
| 235 (VYKDSIYYI; listed as Homo sapiens) [compound 235] | GB, PCA, HCC, NSCLC, GC | – |
| 236 (VYLPKIPSW; listed as Homo sapiens) [compound 236] | HCC, NSCLC | – |
| 238 (SYLEKVRQL; listed as Homo sapiens) [compound 238] | NSCLC | – |
| 240 (YYFFVQEKI; listed as Homo sapiens) [compound 240] | HCC, NSCLC | – |
| 241 (SYVKVLHHL; listed as Homo sapiens) [compound 241] | – | HCC |
| 242 (VYGEPRELL; listed as Homo sapiens) [compound 242] | – | HCC |
| 243 (SYLELANTL; listed as Homo sapiens) [compound 243] | PCA, NSCLC | – |
| 246 (KYLSVQLTL; listed as Homo sapiens) [compound 246] | – | NSCLC |
| 247 (SFTKTSPNF; listed as Homo sapiens) [compound 247] | – | HCC |
| 248 (AFPTFSVQL; listed as Homo sapiens) [compound 248] | NSCLC | – |
| 249 (RYHPTTCTI; listed as Homo sapiens) [compound 249] | NSCLC | – |
| 250 (KYPDIASPTF; listed as Homo sapiens) [compound 250] | HCC | – |
| 252 (AFGQETNVPLNNF; listed as Homo sapiens) [compound 252] | HCC | – |
| 254 (KYLESSATF; listed as Homo sapiens) [compound 254] | NSCLC | – |
| 255 (VYQKIILKF; listed as Homo sapiens) [compound 255] | HCC | – |
| 256 (VFGKSAYLF; listed as Homo sapiens) [compound 256] | – | NSCLC |
| 257 (IFIDNSTQPLHF; listed as Homo sapiens) [compound 257] | HCC | – |
| 259 (YFIKSPPSQLF; listed as Homo sapiens) [compound 259] | NSCLC, GC | – |
| 260 (VYMNVMTRL; listed as Homo sapiens) [compound 260] | NSCLC | – |

| Substance | ENTITIES | Peptide Presentation on cancer entities |
| --- | --- | --- |
| 263 (RYILENHDF; listed as Homo sapiens) [compound 263] | – | HCC |
| 264 (LYTETRLQF; listed as Homo sapiens) [compound 264] | NSCLC | – |
| 265 (SYLNEAFSF; listed as Homo sapiens) [compound 265] | PCA | – |
| 266 (KYTDWTEFL; listed as Homo sapiens) [compound 266] | HCC, NSCLC, GC, GB, PCA | – |
| 267 (SFLNIEKTEILF; listed as Homo sapiens) [compound 267] | – | HCC |
| 269 (QYPYLQAFF; listed as Homo sapiens) [compound 269] | NSCLC | – |
| 270 (YYSQESKVLYL; listed as Homo sapiens) [compound 270] | – | HCC |
| 271 (RFLMKSYSF; listed as Homo sapiens) [compound 271] | HCC | – |
| 272 (RYVFPLPYL; listed as Homo sapiens) [compound 272] | – | NSCLC |
| 273 (IYGEKLQFIF; listed as Homo sapiens) [compound 273] | – | NSCLC |
| 274 (KQLDIANYELF; listed as Homo sapiens) [compound 274] | NSCLC, GB, HCC | – |
| 275 (KYGTLDVTF; listed as Homo sapiens) [compound 275] | NSCLC | – |
| 276 (QYLDVLHAL; listed as Homo sapiens) [compound 276] | GC, RCC | – |
| 278 (KYVNLVMYF; listed as Homo sapiens) [compound 278] | – | NSCLC |
| 279 (VWLPASVLF; listed as Homo sapiens) [compound 279] | – | NSCLC |
| 280 (TYNPNLQDKL; listed as Homo sapiens) [compound 280] | HCC | – |
| 281 (NYSPGLVSLIL; listed as Homo sapiens) [compound 281] | NSCLC | – |
| 282 (NYLVDPVTI; listed as Homo sapiens) [compound 282] | – | NSCLC |
| 283 (EYQEIFQQL; listed as Homo sapiens) [compound 283] | – | NSCLC |
| 284 (DYLKDPVTI; listed as Homo sapiens) [compound 284] | NSCLC | – |
| 285: peptide found in TRPC4 (gene looked up) (VYVGDALLHAI; listed as Homo sapiens) [compound 285] | PCA | – |

| Substance | ENTITIES | Peptide Presentation on cancer entities |
| --- | --- | --- |
| 286 (SYGTILSHI; listed as Homo sapiens) [compound 286] | NSCLC | – |
| 288 (VYPDTVALTF; listed as Homo sapiens) [compound 288] | NSCLC, GC | – |
| 290 (KYGDFKLLEF; listed as Homo sapiens) [compound 290] | PCA, GB | – |
| 291 (YYLGSGRETF; listed as Homo sapiens) [compound 291] | – | NSCLC, GB, PCA, HCC |
| 292 (FYPQIINTF; listed as Homo sapiens) [compound 292] | – | NSCLC |
| 293 (VYPHFSTTNLI; listed as Homo sapiens) [compound 293] | – | HCC |
| 294 (RFPVQGTVTF; listed as Homo sapiens) [compound 294] | – | PCA |
| 295 (SYLVIHERI; listed as Homo sapiens) [compound 295] | NSCLC, GC | – |
| 296 (SYQVIFQHF; listed as Homo sapiens) [compound 296] | NSCLC, GC | – |
| 297 (TYIDTRTVF; listed as Homo sapiens) [compound 297] | PCA, HCC, NSCLC, GC | – |
| 298 (AYKSEVVYF; listed as Homo sapiens) [compound 298] | NSCLC, GB | – |
| 299 (KYQYVLNEF; listed as Homo sapiens) [compound 299] | NSCLC, GC, GB | – |
| 300 (TYPSQLPSL; listed as Homo sapiens) [compound 300] | CRC, GC | – |
| 301 (KFDDVTMLF; listed as Homo sapiens) [compound 301] | NSCLC, GC, HCC | – |
| 302 (LYLPVHYGF; listed as Homo sapiens) [compound 302] | – | NSCLC |
| 303 (LYSVIKEDF; listed as Homo sapiens) [compound 303] | GB, PCA, HCC, NSCLC, GC | – |
| 305 (NYENKQYLF; listed as Homo sapiens) [compound 305] | NSCLC, GB, HCC | – |
| 306 (VYPAEQPQI; listed as Homo sapiens) [compound 306] | NSCLC | – |
| 307 (GYAFTLPLF; listed as Homo sapiens) [compound 307] | NSCLC, GC | – |
| 309 (KYYRQTLLF; listed as Homo sapiens) [compound 309] | PCA, HCC, NSCLC, GC, GB | – |
